Source: paper PMC5391603, “Identification and functional characterisation of a Schistosoma japonicum insulin-like peptide” (Parasites & Vectors, 2017)
Entries after “also recorded” stand apart in the source; their conditions may differ.

System: adult S. japonicum
Assay: Immunolocalisation (HRP labelling) in adult S. japonicum sections
Settings: HRP labelling of cryostat sections, mouse anti-SjILP serum or mouse anti-human insulin mAb 1:100

“human insulin: human insulin (Sigma-Aldrich)” was tested, and the “localisation in adult S. japonicum” value was “detected only on the surface of adult male and female S. japonicum; also recorded: detected on the tegument of adult worms with less HRP labelling compared to that observed in SjILP”.
